For some of these results: Where a protein sequence is shown, tags need not be part of it.
Columns and labels:
Exonuclease III (ExoIII) = molecular target: T1, Exonuclease III (ExoIII) (UniProt P09030); test: enzyme reaction in vitro; settings: four 2'-OMe U and a T at 3' end of 41; sense strand digested, 2'-OMe-blocked antisense protected; NEBuffer 1, 37 C 1 h; purified recombinant protein; protein details: 100 U/uL, used in NEBuffer 1
T1 sequence (looked up, limits assumed): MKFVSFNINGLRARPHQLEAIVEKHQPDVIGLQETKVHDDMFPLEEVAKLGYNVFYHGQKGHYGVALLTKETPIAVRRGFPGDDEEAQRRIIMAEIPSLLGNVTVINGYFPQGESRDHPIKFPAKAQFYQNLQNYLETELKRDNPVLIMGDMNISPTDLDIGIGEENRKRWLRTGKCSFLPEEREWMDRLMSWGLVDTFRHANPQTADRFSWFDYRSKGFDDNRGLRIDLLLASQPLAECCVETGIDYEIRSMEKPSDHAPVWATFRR

Sequences of proteins named here, by UniProt entry; tags and fusion partners are left off. A change or cut given only in a name is not applied to a line headed by its entry.
UniProt P00970: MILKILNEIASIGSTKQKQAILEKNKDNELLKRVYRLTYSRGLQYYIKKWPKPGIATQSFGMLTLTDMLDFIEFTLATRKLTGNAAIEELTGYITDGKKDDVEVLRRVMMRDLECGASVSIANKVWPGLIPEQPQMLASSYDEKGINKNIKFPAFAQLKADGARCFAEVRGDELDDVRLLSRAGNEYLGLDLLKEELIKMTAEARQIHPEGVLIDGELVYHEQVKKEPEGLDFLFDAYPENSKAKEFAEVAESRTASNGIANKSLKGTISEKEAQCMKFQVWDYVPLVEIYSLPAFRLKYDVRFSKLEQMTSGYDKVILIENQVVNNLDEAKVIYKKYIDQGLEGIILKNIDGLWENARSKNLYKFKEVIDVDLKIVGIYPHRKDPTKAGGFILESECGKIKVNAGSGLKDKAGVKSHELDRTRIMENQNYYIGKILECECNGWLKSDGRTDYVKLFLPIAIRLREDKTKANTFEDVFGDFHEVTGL

T4 DNA ligase = T4 DNA ligase (UniProt P00970); test: activity assay; settings: purified recombinant protein

Question: “TATTGACGTCCTTCCCCGTACGCCGGGCAATAACGTTTATGT (double strand) [template + synthetic antisense duplex]” was tested. Which “activity on this sequence” value (Exonuclease III (ExoIII)) did it give?
Answer: active

Question: “TATTGACGTCCTTCCCCGTACGCCGGGCAATAACGTTTATGT / ACATAAA / CGTTATT / GCCCGGC / GTACGGG / GAAGGAC / GTCAATA [template + six oligomers]” was tested. Which “activity on this sequence” value (T4 DNA ligase; 5' phosphate on 43-47, four 2'-OMe U and a T at 3' end of 47, ligated, Tm and PAGE, 1 mM ATP, 20% DMSO, 16 C 18 h) did it give?
Answer: active

Question: For “TATTGACGTCCTTCCCCGTACGCCGGGCAATAACGTTTATGT / ACATAAA / CGTTATT / GCCCGGC / GTACGGG / GAAGGAC [template + 42-46]”, which “activity on this sequence” value (T4 DNA ligase; 5' phosphate on 43-46, ligated 5mer by Tm, 1 mM ATP, 20% DMSO, 16 C 18 h) is on record?
Answer: active

Question: How did the “activity on this sequence” value (T4 DNA ligase; 5' phosphate on oligomers, ligated 4mer by Tm, 1 mM ATP, 20% DMSO, 16 C 18 h) turn out when “TATTGACGTCCTTCCCCGTACGCCGGGCAATAACGTTTATGT / CGTTATT / GCCCGGC / GTACGGG / GAAGGAC [template + 43-46]” was run?
Answer: active

Question: With “TATTGACGTCCTTCCCCGTACGCCGGGCAATAACGTTTATGT / GCCCGGC / GTACGGG / GAAGGAC [template + 44-46]” as the sequence, how does the “activity on this sequence” value (T4 DNA ligase; 5' phosphate on oligomers, ligated 3mer by Tm, 1 mM ATP, 20% DMSO, 16 C 18 h) read?
Answer: active

Question: “TATTGACGTCCTTCCCCGTACGCCGGGCAATAACGTTTATGT / GTACGGG / GAAGGAC [template + 45,46]” was tested. Which “activity on this sequence” value (T4 DNA ligase; 5' phosphate on oligomers, ligated 2mer by Tm, 1 mM ATP, 20% DMSO, 16 C 18 h) did it give?
Answer: active

Question: “TTACAGTAGACAGGTCACTCACCTGCATGTCACTCCGTTGTCGTTC / AACATCACCTAGCCTGCGAACGACAACGGAGTGACATGC / AGGTGAGTGACCTGTCTACTGTAAGATGCAGTCTCTCGTGG [positive control nick]” was tested. Which “activity on this sequence” value (T4 DNA ligase; 5' amino on 56, 5' phosphate and 3' four 2'-OMe U + T on 57, nick ligated, 10 mM MgCl2, 1 mM ATP, 22 C 1 h, no product without ligase) did it give?
Answer: active

Source: patent US20150247183
